Data as given in patent US6194169A, “Enhanced expression of human platelet-derived growth factor in Pichia pastoris” (The University of Kentucky Research Foundation, priority 1998, dated 2001).
The amount applied is not stated for every result.

Test system: CHO cells
Experiment: [35S]cysteine pulse-chase of cell surface association and secretion in CHO cells
Format: cell-based, Chinese hamster

## WT-RKK: human PDGF B-chain (PDGF-BB homodimer) with wild-type loop III residues Arg Lys Lys (RKK)
  time of appearance of suramin-releasable p34/35 on the cell surface: ≤ 1 h
  time of disappearance of suramin-releasable p34/35 from the cell surface: ≤ 24 h
  time of peak of suramin-releasable p34/35 on the cell surface: ≤ 3 h
